No constants are given. Whether binding was seen depends on the method and setting. In cells and extracts the contact can be indirect. Some binding calls cover weakened binding; strength is not graded here.
Target: GSAAT2 (glutamate-1-semialdehyde aminotransferase 2) fused to a half of YFP-Venus (Arabidopsis thaliana) (UniProt Q42522)
Assay: split reporter; BiFC with halves of YFP-Venus, transient co-expression in N. benthamiana leaves for 48-72 h in the dark, confocal microscopy; GSAAT-YFPc with GBP-YFPn, HEMA1-YFPn or GSAAT-YFPn

Amino acid sequences for entries named in this document (tags omitted). Residues count along the entry.
UniProt Q42522, residues 37-472: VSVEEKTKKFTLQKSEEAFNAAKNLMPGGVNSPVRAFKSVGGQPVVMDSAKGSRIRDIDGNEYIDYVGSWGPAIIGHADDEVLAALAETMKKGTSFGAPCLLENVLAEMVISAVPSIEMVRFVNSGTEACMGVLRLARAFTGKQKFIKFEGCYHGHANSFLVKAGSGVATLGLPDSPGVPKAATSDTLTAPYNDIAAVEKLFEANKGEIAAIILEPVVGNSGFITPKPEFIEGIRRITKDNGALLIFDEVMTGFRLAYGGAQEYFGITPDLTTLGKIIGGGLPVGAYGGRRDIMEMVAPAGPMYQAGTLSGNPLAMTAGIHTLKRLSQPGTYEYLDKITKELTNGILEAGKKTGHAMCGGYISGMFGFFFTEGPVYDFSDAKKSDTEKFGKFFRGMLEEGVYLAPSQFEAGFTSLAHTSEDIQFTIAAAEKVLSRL

- binding: binds
Substance: GSAAT2 (glutamate-1-semialdehyde aminotransferase 2) fused to a half of YFP-Venus (from UniProt Q42522 37-472) (enzyme)

Reference: article PMC9614494
